These are yes or no findings as the source states them, for the method shown. Binding can be weak; no strength is given.
Columns and labels:
[1] = target: BlRGA (Betula luminifera); assay: two-hybrid; Matchmaker Golden Yeast Two-Hybrid System; BD fusions in Y2HGold and AD fusions in Y187, yeast mating; growth on SD-Leu-Trp-His-Ade plates with 40 ug/ml X-alpha-gal and 125 ng/ml Aureobasidin A, dilutions to 10^-1 and 10^-2
[2] = target: BlRGL (Betula luminifera); assay: as above

binding [1]	binding [2]	Substance
binds	binds	BlSPL1 (from UniProt L7X457)
binds weakly	binds	BlSPL2 (from UniProt A0A2I6SES7)
binds	binds	BlSPL5 (from UniProt A0A2I6SEU2)
binds	no binding	BlSPL6 (from UniProt A0A2I6SEU0)
no binding	binds weakly	BlSPL16 (from UniProt A0A2I6SEU8)
binds	binds	BlSPL18 (from UniProt A0A2I6SEV6)
